This is one part of the list.
Compound: CC1Cc2ccccc2N1C(=O)C1CCCN(C1)C(=O)CCl (mixture of isomers) [TRIM25 ligand 11 (diastereomer mixture)]
Experiment: probe-labelled cysteine peptide fold change vs DMSO (competition) (log2 fold change); higher = less target engagement (more negative = stronger competition)
Conditions: THP-1, incubation time: 4 h
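Note: competitive chemoproteomic profiling in live THP-1 cells with an iodoacetamide desthiobiotin (IA-DTB) probe, comparing probe-labelled peptide intensities in compound-treated cells against DMSO-treated controls.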

Target	probe-labelled cysteine peptide fold change (10 µM)	probe-labelled cysteine peptide fold change (50 µM)
PGK1_P00558_99_DCVGPEVEK (UniProt P00558)	-0.0873	-0.0229
PEBP1_P30086_133_YVWLVYEQDRPLKCDEPILSNR (UniProt P30086)	-0.475	-0.504
PECAM1_P16284_109_CTVIVNNK (UniProt P16284)	0.126	0.476
PEX1_O43933_310_HCAIHVFPWDQEYFDVEPSFTVTYGK (UniProt O43933)	-0.244	0.184
PGAM1_P18669_153_YADLTEDQLPSCESLK (UniProt P18669)	-0.0451	0.0509
PFAS_O15067_1044_MGPSYCLPPTFPK (UniProt O15067)	-0.0629	-0.204
PHPT1_Q9NRX4_71+73_QGCDCECLGGGR (UniProt Q9NRX4)	0.197	-0.0507
PFKFB3_Q16875_387_QENVLVICHQAVLR (UniProt Q16875)	0.175	0.248
PIK3C2A_O00443_317_STANCHLER (UniProt O00443)	0.0976	-0.144
PHF14_O94880-2_607+612_LCYHFGCLDPPLK (UniProt O94880)	0.273	0.109
PI4K2A_Q9BTU6_124_CIFPER (UniProt Q9BTU6)	0.133	0.285
PGD_P52209_170_VGTGEPCCDWVGDEGAGHFVK (UniProt P52209)	0.0296	-0.0703
PFN1_P07737_71_CSVIRDSLLQDGEFSMDLR (UniProt P07737)	-0.408	-0.21
PEX11B_O96011_25_AAQYACSLLGHALQR (UniProt O96011)	0.0645	0.12
PHF6_Q8IWS0_82_LMCSLCHCPGATIGCDVK (UniProt Q8IWS0)	0.18	0.155
PIGT_Q969N2_182_EVVCTENLTPWKK (UniProt Q969N2)	-0.0672	0.174
PHF5A_Q7RTV0_46_ICDECNYGSYQGR (UniProt Q7RTV0)	0.00533	-0.0473
PGM2_Q96G03_484_ASYFICHDQETIK (UniProt Q96G03)	0.175	0.109
PIAS3_Q9Y6X2_366_KPTWTCPVCDK (UniProt Q9Y6X2)	0.0845	0.132
PGLYRP2_Q96PD5_379_EFTEAFLGCPAIHPR (UniProt Q96PD5)	0.293	0.227

Target	probe-labelled cysteine peptide fold change (10 µM)	probe-labelled cysteine peptide fold change (50 µM)
PFKP_Q01813_123_GITNLCVIGGDGSLTGANLFRK (UniProt Q01813)	-0.349	-0.157
PEX6_Q13608_761_AVATECSLTFLSVK (UniProt Q13608)	-0.0523	0.145
PES1_O00541_153_CHVQTIQLCR (UniProt O00541)	0.0494	0.219
PIAS1_O75925_192_CDFTVQVQLR (UniProt O75925)	0.115	0.268
PECR_Q9BY49_191_SLALEWACSGIR (UniProt Q9BY49)	0.103	-0.0459
PIAS4_Q8N2W9_50_ALQLVQFDCSPELFK (UniProt Q8N2W9)	-0.0242	0.0997
PHF14_O94880_874_AEDLRTECATCK (UniProt O94880)	-0.0633	-0.131
PGK1_P00558_316_TGQATVASGIPAGWMGLDCGPESSK (UniProt P00558)	-0.173	-0.2
PHYH_O14832_145_YVECFTGPNIMAMHTMLINKPPDSGKK (UniProt O14832)	-0.148	-0.117
PHF14_O94880-2_607_LCYHFGCLDPPLK (UniProt O94880)	-0.0279	-0.0177
PELP1_Q8IZL8_536_TILMCGPLIK (UniProt Q8IZL8)	0.105	0.16
PIGX_Q8TBF5_175_YHRPHSEDGEASIVVNNPDLLMFCDQEFPILK (UniProt Q8TBF5)	-0.0627	-0.0793
PFDN5_Q99471_49_DCLNVLNK (UniProt Q99471)	-0.223	-0.253
PHRF1_Q9P1Y6_145_NANSCPVDR (UniProt Q9P1Y6)	-0.045	-0.0142
PELP1_Q8IZL8_645_VPPLQPMGPTCPTPAPVPPPEAPSPFR (UniProt Q8IZL8)	0.046	-0.386
PHGDH_O43175_111_GILVMNTPNGNSLSAAELTCGMIMCLAR (UniProt O43175)	0.00209	-0.13
PGGT1B_P53609_338_WPDSHPDALHAYFGICGLSLMEESGICK (UniProt P53609)	-0.0872	0.137
PHF21A_Q96BD5_514_VYHLDCLDPPLK (UniProt Q96BD5)	-0.079	-0.00554
PGK1_P00558_380_GCITIIGGGDTATCCAK (UniProt P00558)	-0.111	0.0148

— the supplement of paper PMC12067093, “Discovery and optimisation of a covalent ligand for TRIM25 and its application to targeted protein ubiquitination” (Chemical Science, 2025)
